Assay results from publication PMC11330971.
No constants are given. Whether binding was seen depends on the method and setting. Binding seen in cells or lysates may run through a third protein. Some entries that bind do so weakly or less than the wild type.

Target: T1, vesicle-associated membrane protein 8 (mouse (endogenous in HT22)) (UniProt O70404)
T1 sequence: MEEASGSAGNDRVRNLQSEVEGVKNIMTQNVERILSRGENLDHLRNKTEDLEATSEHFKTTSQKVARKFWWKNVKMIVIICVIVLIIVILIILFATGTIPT
Assay: co-IP; HT22 cell lysate incubated with Protein A + G magnetic beads conjugated to VAMP8 antibody (5 ug/ml) or normal IgG, 4 °C overnight; western blot; cells 2 h after OGD, with Lv-NSF, Lv-Ctrl, NSF siRNA or si-NC

binding: binds
B1: Syntaxin-17 (protein, UniProt Q9D0I4 1-301)
chain: MSEDEEKVKLRRLEPAIQKFTKIVIPTDLERLRKHQINIEKYQRCRIWDKLHEEHINAGRTVQQLRSNIREMEKLCLKVHKDDLVLLKRMIDPVKEAAATATAEFLQLHLESVEELKKQVNDEELLQPSLTRSTTVDGVLHTGEAEAASQSLTQIYALPEIPQDQNAAESWETLEADLIELSHLVTDMSLLVSSQQEKIDSIADHVNSAAVNVEEGTKNLQKAAKYKLAALPVAGALIGGVVGGPIGLLAGFKVAGIAAALGGGVLGFTGGKLIQRRKQKMMEKLTSSCPDLPSQSDKKRS
